Reference: PMC4538849
These are yes or no findings as the source states them, for the method shown. Binding seen in cells or lysates may run through a third protein. Here binding means that the protein was enriched with, or labelled near, the bait; the list need not be complete.

Amino acid sequences for entries named in this document (tags omitted).
UniProt Q8IXI1: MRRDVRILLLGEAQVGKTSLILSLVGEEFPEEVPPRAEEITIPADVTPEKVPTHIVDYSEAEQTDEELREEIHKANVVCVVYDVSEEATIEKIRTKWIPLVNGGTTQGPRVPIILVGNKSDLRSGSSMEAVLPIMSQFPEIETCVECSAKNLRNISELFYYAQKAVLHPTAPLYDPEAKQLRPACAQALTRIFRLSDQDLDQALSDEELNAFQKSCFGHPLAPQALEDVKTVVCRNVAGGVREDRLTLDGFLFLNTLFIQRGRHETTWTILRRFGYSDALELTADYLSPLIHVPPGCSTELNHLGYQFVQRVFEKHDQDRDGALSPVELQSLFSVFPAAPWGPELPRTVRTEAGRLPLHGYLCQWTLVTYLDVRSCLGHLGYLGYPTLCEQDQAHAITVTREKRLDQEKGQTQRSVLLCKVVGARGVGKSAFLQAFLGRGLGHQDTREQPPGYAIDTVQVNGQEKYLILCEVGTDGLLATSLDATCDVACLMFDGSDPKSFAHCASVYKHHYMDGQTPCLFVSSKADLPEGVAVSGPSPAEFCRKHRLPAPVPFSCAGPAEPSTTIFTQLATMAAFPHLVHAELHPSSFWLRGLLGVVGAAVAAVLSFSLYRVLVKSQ
UniProt Q8IXI2: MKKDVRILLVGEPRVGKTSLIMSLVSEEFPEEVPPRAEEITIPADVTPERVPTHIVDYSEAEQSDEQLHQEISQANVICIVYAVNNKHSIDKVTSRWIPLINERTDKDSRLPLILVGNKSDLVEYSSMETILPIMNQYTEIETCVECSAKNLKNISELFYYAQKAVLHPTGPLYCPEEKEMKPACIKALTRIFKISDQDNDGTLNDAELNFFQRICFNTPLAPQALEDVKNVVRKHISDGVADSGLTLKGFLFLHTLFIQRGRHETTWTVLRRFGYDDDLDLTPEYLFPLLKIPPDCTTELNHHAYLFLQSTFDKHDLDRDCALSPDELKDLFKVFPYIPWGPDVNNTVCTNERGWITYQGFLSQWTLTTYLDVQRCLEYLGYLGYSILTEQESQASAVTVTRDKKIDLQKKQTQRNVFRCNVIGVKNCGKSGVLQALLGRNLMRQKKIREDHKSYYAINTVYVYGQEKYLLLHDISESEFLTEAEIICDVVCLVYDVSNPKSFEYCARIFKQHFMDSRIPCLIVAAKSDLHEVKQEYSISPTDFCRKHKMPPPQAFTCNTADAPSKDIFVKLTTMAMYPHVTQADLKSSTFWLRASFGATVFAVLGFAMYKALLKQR
UniProt P49454: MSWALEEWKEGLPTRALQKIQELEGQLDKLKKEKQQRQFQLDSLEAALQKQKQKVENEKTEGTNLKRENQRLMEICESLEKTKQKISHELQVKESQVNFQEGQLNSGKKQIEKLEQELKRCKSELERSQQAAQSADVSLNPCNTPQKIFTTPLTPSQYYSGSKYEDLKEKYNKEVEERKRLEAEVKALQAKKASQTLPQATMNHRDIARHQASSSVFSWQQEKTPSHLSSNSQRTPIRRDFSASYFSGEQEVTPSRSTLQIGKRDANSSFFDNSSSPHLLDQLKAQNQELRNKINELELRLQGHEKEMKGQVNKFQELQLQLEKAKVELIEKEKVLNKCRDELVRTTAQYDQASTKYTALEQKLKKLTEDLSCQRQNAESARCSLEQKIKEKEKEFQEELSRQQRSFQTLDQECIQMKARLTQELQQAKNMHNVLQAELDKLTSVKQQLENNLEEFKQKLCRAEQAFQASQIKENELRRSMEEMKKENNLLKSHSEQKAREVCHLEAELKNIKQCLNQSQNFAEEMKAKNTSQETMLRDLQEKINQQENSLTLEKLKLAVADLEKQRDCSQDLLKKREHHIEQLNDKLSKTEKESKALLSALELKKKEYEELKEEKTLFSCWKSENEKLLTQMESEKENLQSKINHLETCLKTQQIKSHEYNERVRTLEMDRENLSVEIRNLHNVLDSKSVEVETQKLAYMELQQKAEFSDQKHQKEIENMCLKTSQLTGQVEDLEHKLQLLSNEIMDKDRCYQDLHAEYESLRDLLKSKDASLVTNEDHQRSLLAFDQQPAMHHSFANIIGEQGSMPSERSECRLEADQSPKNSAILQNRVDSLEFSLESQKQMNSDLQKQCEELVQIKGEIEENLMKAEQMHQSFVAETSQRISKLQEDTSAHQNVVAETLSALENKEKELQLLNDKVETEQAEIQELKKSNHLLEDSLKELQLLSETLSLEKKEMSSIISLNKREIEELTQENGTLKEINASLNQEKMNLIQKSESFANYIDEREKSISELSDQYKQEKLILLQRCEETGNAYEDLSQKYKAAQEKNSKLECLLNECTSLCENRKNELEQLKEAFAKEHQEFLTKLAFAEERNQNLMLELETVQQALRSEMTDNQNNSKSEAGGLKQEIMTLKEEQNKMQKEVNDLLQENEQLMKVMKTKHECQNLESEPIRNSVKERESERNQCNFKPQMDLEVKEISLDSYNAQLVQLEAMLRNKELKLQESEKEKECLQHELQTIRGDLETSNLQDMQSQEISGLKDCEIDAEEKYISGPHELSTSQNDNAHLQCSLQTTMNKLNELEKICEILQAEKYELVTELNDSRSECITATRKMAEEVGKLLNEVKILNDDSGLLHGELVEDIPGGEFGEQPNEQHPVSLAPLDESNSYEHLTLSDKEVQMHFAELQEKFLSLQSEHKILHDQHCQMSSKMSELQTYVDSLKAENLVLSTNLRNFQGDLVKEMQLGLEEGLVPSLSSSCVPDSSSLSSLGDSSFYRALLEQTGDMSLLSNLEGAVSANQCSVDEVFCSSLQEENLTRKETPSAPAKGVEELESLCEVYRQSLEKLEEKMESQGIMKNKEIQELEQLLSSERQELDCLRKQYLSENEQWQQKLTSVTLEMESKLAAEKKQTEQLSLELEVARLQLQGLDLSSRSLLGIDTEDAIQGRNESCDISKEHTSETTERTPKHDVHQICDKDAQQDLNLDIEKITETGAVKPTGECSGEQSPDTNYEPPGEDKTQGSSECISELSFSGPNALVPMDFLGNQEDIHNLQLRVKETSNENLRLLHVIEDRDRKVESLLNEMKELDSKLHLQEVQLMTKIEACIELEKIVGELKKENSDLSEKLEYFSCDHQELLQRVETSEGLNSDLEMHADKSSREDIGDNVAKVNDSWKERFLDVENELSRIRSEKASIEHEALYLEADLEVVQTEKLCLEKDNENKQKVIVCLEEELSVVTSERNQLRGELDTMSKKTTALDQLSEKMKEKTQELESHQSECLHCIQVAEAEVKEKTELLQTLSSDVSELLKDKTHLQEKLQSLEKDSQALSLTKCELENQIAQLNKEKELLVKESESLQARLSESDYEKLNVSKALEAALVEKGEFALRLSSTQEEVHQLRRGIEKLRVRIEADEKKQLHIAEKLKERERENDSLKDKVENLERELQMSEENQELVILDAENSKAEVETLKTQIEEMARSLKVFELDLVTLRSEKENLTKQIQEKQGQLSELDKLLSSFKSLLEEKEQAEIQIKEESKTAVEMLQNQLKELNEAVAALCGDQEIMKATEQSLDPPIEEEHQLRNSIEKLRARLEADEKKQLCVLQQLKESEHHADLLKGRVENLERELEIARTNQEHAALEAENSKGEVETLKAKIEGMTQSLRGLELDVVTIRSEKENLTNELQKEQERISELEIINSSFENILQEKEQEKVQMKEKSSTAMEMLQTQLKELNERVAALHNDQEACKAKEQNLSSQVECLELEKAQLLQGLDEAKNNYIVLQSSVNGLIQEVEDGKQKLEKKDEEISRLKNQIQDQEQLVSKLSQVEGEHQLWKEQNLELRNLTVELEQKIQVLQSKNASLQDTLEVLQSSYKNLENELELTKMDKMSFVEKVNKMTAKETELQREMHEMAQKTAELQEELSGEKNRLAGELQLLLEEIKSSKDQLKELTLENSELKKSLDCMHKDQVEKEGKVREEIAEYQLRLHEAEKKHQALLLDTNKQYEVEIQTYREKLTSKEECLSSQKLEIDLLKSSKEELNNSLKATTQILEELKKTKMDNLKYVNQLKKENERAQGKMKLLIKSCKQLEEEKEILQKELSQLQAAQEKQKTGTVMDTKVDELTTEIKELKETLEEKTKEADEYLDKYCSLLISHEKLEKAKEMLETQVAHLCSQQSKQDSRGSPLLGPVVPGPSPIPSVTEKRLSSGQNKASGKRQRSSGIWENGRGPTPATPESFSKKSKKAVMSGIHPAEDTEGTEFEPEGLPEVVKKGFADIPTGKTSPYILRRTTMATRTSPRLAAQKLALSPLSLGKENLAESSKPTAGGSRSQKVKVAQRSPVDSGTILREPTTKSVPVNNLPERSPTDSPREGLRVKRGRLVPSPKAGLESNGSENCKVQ

Key:
[1] = target: 3 × Flag-6 × HIS-Miro2 (human) (UniProt Q8IXI1); assay: affinity purification with mass spectrometry; 3xFlag-6His-Miro1 or -Miro2 from doxycycline-induced T-Rex-293 whole-cell extracts (2% Triton) on M2-Flag magnetic beads, washed with 0.2% digitonin buffer, eluted with 3xFlag peptide, LC-MS/MS
[2] = target: 3 × Flag-6 × HIS-Miro1 (human) (UniProt Q8IXI2); assay: affinity purification with mass spectrometry; SILAC: unlabelled cells expressing 3xFlag-6His-Miro1 mixed in equal amounts with heavy Arg10/Lys8-labelled control HEK293 T-Rex cells before lysis; Flag purification; light to heavy ratio of peptides

Substance	binding [1]	binding [2]
Miro1 (from UniProt Q8IXI2 1-618)	binds	–
centromeric protein F (Cenp-F) (from UniProt P49454 1-3114)	–	binds
